From PMC3045356
No constants are given. Whether binding was seen depends on the method and setting. In cells and extracts the contact can be indirect. Some entries that bind do so weakly or less than the wild type.

Chains of the proteins cited; added tags and fusions are not shown. Residues count along the entry.
UniProt O00220, residues 24-468: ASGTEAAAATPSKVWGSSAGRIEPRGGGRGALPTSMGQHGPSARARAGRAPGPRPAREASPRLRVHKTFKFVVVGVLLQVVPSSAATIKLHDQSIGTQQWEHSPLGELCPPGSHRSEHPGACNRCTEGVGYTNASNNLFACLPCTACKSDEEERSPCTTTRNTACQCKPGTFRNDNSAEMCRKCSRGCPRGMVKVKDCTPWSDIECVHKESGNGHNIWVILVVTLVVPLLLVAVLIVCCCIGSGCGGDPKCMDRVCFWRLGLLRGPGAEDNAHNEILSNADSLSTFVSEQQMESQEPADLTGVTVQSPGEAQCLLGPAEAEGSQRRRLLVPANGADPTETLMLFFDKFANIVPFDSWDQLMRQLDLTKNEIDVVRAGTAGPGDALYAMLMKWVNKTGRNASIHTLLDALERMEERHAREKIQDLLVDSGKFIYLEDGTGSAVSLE
UniProt O14763, residues 56-440: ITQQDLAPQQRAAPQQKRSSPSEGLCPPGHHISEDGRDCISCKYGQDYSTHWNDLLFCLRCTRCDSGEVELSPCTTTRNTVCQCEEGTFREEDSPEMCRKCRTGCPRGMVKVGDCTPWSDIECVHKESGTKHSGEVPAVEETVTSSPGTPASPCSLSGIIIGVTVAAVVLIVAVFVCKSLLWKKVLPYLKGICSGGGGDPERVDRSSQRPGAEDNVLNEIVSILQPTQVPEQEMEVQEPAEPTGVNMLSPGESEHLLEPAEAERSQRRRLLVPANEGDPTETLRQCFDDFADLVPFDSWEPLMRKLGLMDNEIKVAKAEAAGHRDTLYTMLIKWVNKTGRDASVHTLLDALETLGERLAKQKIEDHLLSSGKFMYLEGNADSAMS
UniProt Q13158: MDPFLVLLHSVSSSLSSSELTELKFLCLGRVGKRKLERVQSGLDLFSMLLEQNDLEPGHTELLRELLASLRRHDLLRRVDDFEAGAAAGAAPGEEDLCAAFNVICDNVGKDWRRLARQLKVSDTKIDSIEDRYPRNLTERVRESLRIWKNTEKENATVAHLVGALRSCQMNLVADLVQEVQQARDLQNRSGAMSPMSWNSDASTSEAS

Assays:
[1] = molecular target: Death receptor 4 (DR4) (human (endogenous in SW948)) (UniProt O00220); experiment: co-IP; DR4-DISC and DR5-DISC: SW948 cells stimulated 15 min at 37°C with 5 μg/ml agonistic antibody (HGS-ETR1 for DR4, TR2J for DR5); lysis in 0.2% Nonidet P-40, 150 mM NaCl, 20 mM Tris-HCl pH 7.5; precipitated with protein-G agarose; Western blot for DR4, DR5, FADD, caspase 8, c-FLIP
[2] = molecular target: Death receptor 5 (DR5) (human (endogenous in SW948)) (UniProt O14763); experiment: as above

FADD (from UniProt Q13158 1-208)
binding [1]: binds | binding [2]: binds
